Data as given in paper PMC3753647.
These are yes or no findings as the source states them, for the method shown. Some results given as binding are weak or reduced against the parent protein; the word gives no strength. Sequences can lack the tags named with a protein.

Substrate: T1, S subunit of the EcoKI MTase tagged with EGFP and a hexa-Histidine tag (UniProt P05719)
T1 sequence: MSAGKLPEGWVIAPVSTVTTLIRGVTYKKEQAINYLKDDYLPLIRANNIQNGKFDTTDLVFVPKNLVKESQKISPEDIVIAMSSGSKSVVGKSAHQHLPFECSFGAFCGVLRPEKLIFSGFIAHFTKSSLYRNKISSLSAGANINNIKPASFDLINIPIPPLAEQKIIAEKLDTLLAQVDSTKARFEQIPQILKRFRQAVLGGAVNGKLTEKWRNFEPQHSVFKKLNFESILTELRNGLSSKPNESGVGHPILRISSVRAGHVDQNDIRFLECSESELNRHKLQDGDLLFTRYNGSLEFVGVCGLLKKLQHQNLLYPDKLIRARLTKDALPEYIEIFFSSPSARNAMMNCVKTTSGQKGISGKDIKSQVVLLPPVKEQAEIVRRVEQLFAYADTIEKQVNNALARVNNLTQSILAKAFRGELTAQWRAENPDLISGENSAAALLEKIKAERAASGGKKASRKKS
Test: co-purification with SDS-PAGE; EcoKI MTase preparation with EGFP-His-tagged S subunit shown on SDS-PAGE for comparison; its preparation is not told here (ref. 14)

binding: binds
B1: M subunit of the EcoKI MTase (protein, UniProt P08957 1-529)
chain: MNNNDLVAKLWKLCDNLRDGGVSYQNYVNELASLLFLKMCKETGQEAEYLPEGYRWDDLKSRIGQEQLQFYRKMLVHLGEDDKKLVQAVFHNVSTTITEPKQITALVSNMDSLDWYNGAHGKSRDDFGDMYEGLLQKNANETKSGAGQYFTPRPLIKTIIHLLKPQPREVVQDPAAGTAGFLIEADRYVKSQTNDLDDLDGDTQDFQIHRAFIGLELVPGTRRLALMNCLLHDIEGNLDHGGAIRLGNTLGSDGENLPKAHIVATNPPFGSAAGTNITRTFVHPTSNKQLCFMQHIIETLHPGGRAAVVVPDNVLFEGGKGTDIRRDLMDKCHLHTILRLPTGIFYAQGVKTNVLFFTKGTVANPNQDKNCTDDVWVYDLRTNMPSFGKRTPFTDEHLQPFERVYGEDPHGLSPRTEGEWSFNAEETEVADSEENKNTDQHLATSRWRKFSREWIRTAKSDSLDISWLKDKDSIDADSLPEPDVLAAEAMGELVQALSELDALMRELGASDEADLQRQLLEEAFGGVKE
